The results in this text go back to publication doi:10.1101/659995.

The chains behind the UniProt entries cited, without tags or fusion partners.
UniProt P11103: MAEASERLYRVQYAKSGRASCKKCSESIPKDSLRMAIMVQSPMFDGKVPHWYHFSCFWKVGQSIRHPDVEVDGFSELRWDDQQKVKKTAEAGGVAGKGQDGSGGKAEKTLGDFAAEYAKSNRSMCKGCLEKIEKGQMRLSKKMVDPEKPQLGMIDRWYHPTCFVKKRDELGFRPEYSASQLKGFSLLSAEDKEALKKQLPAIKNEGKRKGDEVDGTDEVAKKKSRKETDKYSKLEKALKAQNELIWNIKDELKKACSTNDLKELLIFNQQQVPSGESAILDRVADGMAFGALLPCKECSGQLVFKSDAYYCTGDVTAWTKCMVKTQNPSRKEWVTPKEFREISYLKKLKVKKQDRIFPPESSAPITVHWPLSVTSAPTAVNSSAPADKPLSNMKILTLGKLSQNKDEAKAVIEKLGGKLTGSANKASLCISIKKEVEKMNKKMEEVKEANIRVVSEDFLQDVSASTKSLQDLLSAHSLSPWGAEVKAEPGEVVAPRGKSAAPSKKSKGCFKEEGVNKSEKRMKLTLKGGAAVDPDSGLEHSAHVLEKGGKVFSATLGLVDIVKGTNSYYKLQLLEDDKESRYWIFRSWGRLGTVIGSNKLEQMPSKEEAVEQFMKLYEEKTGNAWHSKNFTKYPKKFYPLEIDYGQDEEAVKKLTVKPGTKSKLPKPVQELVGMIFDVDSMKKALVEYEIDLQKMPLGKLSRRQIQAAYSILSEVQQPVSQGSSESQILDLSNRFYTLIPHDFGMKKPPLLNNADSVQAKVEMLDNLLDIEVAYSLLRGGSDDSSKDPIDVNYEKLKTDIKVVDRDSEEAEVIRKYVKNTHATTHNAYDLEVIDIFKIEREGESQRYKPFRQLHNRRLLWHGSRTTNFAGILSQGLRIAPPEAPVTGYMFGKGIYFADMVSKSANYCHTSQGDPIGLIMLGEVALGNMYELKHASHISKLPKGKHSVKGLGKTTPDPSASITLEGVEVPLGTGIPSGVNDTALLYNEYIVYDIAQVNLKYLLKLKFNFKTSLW
UniProt Q62318: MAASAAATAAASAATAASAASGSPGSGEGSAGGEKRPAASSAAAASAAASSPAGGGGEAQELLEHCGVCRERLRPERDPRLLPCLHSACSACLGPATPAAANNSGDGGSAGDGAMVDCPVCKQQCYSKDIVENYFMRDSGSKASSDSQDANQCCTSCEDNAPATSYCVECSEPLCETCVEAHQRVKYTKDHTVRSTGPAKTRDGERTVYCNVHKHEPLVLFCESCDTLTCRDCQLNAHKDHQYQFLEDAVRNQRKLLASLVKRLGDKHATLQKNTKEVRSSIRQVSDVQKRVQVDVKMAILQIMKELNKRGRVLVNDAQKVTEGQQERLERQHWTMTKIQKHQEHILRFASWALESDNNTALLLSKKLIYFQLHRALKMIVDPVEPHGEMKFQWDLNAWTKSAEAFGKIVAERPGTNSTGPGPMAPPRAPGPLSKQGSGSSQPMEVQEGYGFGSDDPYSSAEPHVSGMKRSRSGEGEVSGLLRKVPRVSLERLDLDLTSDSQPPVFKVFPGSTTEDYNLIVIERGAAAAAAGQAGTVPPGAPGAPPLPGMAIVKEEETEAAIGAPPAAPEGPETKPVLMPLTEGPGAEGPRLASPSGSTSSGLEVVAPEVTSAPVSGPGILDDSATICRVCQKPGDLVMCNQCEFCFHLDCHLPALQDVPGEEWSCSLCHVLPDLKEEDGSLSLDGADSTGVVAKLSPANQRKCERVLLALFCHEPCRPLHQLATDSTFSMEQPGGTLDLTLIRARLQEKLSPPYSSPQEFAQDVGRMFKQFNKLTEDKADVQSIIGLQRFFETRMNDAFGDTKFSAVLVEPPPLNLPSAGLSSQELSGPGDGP
UniProt Q64511: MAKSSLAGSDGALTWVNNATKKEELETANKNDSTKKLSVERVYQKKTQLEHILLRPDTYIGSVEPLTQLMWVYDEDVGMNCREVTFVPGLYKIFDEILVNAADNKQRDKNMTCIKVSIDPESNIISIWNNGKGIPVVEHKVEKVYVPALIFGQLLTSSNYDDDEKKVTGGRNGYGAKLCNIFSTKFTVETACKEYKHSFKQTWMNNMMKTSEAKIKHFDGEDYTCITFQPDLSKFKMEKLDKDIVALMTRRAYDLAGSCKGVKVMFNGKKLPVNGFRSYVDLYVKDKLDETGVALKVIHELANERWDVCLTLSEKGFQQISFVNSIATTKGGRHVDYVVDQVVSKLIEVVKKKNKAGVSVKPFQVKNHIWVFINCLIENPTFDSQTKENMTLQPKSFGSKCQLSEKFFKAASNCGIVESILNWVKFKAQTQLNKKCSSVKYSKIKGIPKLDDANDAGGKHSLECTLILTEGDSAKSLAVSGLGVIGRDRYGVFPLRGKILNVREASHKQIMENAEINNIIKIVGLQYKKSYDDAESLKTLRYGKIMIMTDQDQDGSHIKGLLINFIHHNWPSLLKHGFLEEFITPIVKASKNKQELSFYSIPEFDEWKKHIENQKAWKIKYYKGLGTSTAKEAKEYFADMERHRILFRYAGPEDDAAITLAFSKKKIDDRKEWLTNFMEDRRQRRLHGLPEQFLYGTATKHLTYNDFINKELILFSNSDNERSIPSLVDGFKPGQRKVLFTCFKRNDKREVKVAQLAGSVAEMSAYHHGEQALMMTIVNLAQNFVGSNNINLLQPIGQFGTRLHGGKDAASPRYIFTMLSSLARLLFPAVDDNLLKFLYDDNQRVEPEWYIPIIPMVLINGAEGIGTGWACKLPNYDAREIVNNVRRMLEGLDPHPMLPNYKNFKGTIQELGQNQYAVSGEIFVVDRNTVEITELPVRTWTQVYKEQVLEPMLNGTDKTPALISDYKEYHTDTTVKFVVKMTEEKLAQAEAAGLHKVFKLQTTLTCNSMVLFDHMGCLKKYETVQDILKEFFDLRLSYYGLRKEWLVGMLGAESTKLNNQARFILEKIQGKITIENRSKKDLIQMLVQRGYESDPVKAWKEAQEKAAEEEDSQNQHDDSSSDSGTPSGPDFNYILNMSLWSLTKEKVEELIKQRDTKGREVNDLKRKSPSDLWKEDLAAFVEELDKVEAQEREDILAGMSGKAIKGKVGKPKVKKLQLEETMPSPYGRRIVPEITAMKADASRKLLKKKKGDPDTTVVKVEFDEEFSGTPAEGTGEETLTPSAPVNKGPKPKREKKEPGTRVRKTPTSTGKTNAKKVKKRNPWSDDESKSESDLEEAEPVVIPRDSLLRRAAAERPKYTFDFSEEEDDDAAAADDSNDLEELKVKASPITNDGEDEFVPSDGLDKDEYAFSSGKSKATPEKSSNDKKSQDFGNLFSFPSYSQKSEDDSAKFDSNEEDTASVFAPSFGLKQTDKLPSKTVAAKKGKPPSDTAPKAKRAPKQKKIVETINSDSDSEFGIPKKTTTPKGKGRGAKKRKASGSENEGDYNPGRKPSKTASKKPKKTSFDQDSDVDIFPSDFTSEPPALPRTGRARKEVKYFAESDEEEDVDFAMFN
UniProt Q60596: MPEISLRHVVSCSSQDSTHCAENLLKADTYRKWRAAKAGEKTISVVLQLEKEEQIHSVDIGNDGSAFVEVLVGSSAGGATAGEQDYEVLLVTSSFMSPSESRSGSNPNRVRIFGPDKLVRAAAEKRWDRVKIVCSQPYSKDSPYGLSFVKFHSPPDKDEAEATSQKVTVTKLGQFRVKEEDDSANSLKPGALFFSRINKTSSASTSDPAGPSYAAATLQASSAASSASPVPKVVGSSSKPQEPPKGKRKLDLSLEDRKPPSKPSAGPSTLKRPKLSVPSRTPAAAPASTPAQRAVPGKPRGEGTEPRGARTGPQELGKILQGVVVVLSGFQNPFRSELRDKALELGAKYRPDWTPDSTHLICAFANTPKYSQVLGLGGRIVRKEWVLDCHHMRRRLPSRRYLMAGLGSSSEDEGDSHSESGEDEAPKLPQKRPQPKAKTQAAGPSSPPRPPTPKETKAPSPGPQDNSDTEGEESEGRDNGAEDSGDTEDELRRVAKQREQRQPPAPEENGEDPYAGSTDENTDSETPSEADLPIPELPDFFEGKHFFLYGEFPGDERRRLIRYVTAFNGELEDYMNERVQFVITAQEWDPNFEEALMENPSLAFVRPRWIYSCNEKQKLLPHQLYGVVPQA
UniProt P40201: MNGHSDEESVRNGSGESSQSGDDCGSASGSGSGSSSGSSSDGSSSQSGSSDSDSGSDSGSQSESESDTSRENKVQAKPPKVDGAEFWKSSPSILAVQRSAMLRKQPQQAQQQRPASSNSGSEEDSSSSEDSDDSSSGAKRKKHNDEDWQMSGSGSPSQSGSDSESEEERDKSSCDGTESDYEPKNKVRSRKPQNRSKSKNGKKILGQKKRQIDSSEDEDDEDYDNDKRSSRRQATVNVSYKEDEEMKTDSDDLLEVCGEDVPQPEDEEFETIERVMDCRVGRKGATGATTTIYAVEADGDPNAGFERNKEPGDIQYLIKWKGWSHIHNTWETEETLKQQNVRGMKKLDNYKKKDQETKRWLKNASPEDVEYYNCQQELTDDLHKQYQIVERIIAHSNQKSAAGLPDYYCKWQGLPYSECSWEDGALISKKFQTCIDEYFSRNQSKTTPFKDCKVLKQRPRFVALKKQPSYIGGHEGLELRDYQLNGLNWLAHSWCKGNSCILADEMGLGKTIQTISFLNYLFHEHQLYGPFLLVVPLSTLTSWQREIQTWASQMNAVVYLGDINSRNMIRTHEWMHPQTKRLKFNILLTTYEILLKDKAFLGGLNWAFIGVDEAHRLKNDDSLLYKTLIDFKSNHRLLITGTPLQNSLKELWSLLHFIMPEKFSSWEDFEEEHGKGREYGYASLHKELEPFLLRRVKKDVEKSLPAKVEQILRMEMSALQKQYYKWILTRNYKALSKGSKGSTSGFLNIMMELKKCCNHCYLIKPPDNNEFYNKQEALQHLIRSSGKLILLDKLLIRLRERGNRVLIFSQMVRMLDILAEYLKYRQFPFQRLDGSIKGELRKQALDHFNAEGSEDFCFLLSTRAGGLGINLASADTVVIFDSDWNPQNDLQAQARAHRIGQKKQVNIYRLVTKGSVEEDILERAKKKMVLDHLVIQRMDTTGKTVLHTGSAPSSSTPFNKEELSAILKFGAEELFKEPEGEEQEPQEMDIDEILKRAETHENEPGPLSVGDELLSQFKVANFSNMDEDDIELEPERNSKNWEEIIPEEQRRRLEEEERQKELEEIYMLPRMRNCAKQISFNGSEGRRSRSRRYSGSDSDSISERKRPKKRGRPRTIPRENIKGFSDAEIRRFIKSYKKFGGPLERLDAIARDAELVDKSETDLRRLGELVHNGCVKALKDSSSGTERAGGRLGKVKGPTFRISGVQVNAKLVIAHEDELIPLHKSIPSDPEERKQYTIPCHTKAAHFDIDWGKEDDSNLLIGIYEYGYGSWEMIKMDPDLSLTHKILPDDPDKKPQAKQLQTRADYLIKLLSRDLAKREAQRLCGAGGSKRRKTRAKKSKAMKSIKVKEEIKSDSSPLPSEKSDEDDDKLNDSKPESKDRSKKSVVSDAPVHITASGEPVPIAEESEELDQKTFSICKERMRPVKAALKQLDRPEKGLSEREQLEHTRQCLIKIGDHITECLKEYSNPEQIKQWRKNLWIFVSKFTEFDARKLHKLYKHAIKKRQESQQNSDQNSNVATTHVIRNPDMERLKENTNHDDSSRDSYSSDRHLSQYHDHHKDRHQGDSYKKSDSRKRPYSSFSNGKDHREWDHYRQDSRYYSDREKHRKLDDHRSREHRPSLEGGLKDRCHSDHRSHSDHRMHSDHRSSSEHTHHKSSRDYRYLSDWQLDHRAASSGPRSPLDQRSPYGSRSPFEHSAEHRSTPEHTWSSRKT

What all share (assay): co-IP
Test [1] has as its target Parp1 (mouse (endogenous in ES cells)) (UniProt P11103).
The target in test [2] is Kap1 (mouse (endogenous in ES cells)) (UniProt Q62318).
For test [3], the target named is topoisomerase 2β (Top2β) (mouse (endogenous in ES cells)) (UniProt Q64511).
In test [4] the target is Xrcc1 (mouse (endogenous in ES cells)) (UniProt Q60596).

Results are given in words; binding and its absence hold for the method and conditions named. Binding seen in cells or lysates may run through a third protein. Some entries that bind do so weakly or less than the wild type.

Turning to Chd1 (from UniProt P40201 1-1711), the binding result is on record as “binds” in test [1], “binds” in test [2], “binds” in test [3] and “no binding” in test [4].
